These are yes or no findings as the source states them, for the method shown. Some binding calls cover weakened binding; strength is not graded here. Where a sequence is shown, tags or fusion partners need not be part of it.
Molecular target: T1, HA-tagged (PR)20 peptide
T1 chain: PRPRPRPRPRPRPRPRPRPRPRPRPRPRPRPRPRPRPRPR
Assay: cross-linking; HA-(PR)20 mixed with 10 mM adenine, adenosine, ribose or ribose-3' phosphate, with or without 10 uM poly-A RNA, 5 min at room temperature; 5 mM DSP for 30 min; SDS-PAGE and Coomassie blue staining; both purified
Details: remark: other sources report otherwise

binding: binds
Binder: PRPRPRPRPRPRPRPRPRPRPRPRPRPRPRPRPRPRPRPR [HA-tagged (PR)20 peptide]

Reference: article PMC6109075, “Characterization of membrane penetration and cytotoxicity of C9orf72-encoding arginine-rich dipeptides” (Scientific Reports, 2018)
